Test results as given in PubChem BioAssay AID180 (DTP/NCI, 2004).
The list does not hold the whole screen: it is rich in T/C values a quarter to a half above the control, in often repeated tests (any T/C) and in doses without a T/C. Other doses and runs of a compound stand elsewhere. T/C: endpoint of the treated group in % of that of the vehicle group. Schedules are NCI's codes, read here as Q, the interval in days (D) or hours (H), X, the number of doses. Some entries were tested several times; the values are given in rising order. Some T/C values are followed by the survivors on the day toxicity was checked, most often the fifth; where none is given, no animal had died by that day. Some entries give survivors of the animals treated and no T/C: the source files T/C as zero there, which appears to mark a toxic dose or a test without result, not a measured value. Counts of survivors are from the toxicity check (mostly the fifth day) where no day follows; animals may have died later. Some schedules carry Z or #; the key to these is not given.

Test system: BDF1 mice, Adenocarcinoma 755 s.c., tumor weight T/C
Assay: NCI In Vivo Anticancer Drug Screen. Data for tumor model Adenocarcinoma 755 (subcutaneous) in B6D2F1 (BDF1) mice
Details: T/C endpoint: mean tumor weight, higher T/C = larger tumour; for T/C: evaluated on day 12
How it was run: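 Transplantable tumor implanted; mice dosed with compound or vehicle; survival or tumor size recorded; ratio of treated to vehicle control reported.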

[1] = dose: 62.0 mg/kg/injection, schedule: Q01DX011 (ip), vehicle: carboxymethylcellulose (CMC)
[2] = dose: 125.0 mg/kg/injection, schedule: Q01DX011 (ip), vehicle: carboxymethylcellulose (CMC)
[3] = dose: 75.0 mg/kg/injection, schedule: Q01DX011 (ip), vehicle: methylcellulose (MC)
[4] = dose: 300.0 mg/kg/injection, schedule: Q01DX011 (ip), vehicle: methylcellulose (MC)
[5] = dose: 44.0 mg/kg/injection, schedule: Q01DX011 (ip), vehicle: methylcellulose (MC)
[6] = dose: 88.0 mg/kg/injection, schedule: Q01DX011 (ip), vehicle: methylcellulose (MC)

CCCCn1cnc2c(SC)nc(N)nc21
T/C (dose: 30.0 mg/kg/injection, schedule: Q01DX011 (ip), vehicle: carboxymethylcellulose (CMC)): 7, 23, 24, 30 % of control | survivor count (dose: 230.0 mg/kg/injection, schedule: Q01DX011 (ip), vehicle: carboxymethylcellulose (CMC)): 5 of 10

O=c1[nH]cc(F)c(=O)[nH]1
T/C (dose: 3.87 mg/kg/injection, schedule: Q01DX011 (ip), vehicle: carboxymethylcellulose (CMC)): 127 % of control | survivor count (dose: 31.0 mg/kg/injection, schedule: Q01DX011 (ip), vehicle: carboxymethylcellulose (CMC)): 3 of 10 | survivor count (dose: 33.1 mg/kg/injection, schedule: Q01DX011 (ip), vehicle: carboxymethylcellulose (CMC)): 5 of 10

CSc1ncc(Br)c(=O)[nH]1
survivor count (dose: 62.0 mg/kg/injection, schedule: Q01DX011 (ip), vehicle: methylcellulose (MC)): 5 of 10 | survivor count (dose: 125.0 mg/kg/injection, schedule: Q01DX011 (ip), vehicle: methylcellulose (MC)): 2 of 10

O=C1NC(=O)C(c2ccccc2)(c2ccc(Cl)cc2Cl)N1 (configuration not stated)
survivor count (dose: 224.0 mg/kg/injection, schedule: Q01DX011 (ip), vehicle: carboxymethylcellulose (CMC)): 6 of 10

S=c1nc[nH]c2c1ncn2C1CCCCO1 (configuration not stated)
survivor count [1]: 0 of 10 | survivor count [2]: 0 of 10

O=C1c2ccccc2C(=O)c2c1c(O)c1ccccc1c2O
survivor count (dose: 100.0 mg/kg/injection, schedule: Q#A X022 (ip), vehicle: other): 4 of 10 | survivor count (dose: 200.0 mg/kg/injection, schedule: Q#A X022 (ip), vehicle: other): 6 of 10 | survivor count (dose: 400.0 mg/kg/injection, schedule: Q#A X022 (ip), vehicle: other): 4 of 10

O=C(Nc1ccc(NC(=O)Nc2cccc(C3=NCCN3)c2)cc1)Nc1cccc(C2=NCCN2)c1
survivor count (dose: 187.5 mg/kg/injection, schedule: Q01DX011 (ip), vehicle: carboxymethylcellulose (CMC)): 2 of 10 | survivor count (dose: 375.0 mg/kg/injection, schedule: Q01DX011 (ip), vehicle: carboxymethylcellulose (CMC)): 3 of 10 | survivor count (dose: 750.0 mg/kg/injection, schedule: Q01DX011 (ip), vehicle: carboxymethylcellulose (CMC)): 0 of 10 | survivor count (dose: 1500.0 mg/kg/injection, schedule: Q01DX011 (ip), vehicle: carboxymethylcellulose (CMC)): 0 of 10 | survivor count (dose: 3000.0 mg/kg/injection, schedule: Q01DX011 (ip), vehicle: carboxymethylcellulose (CMC)): 2 of 10

Nc1ncnc2[nH]ncc12
T/C (dose: 2.83 mg/kg/injection, schedule: Q01DX011 (ip), vehicle: carboxymethylcellulose (CMC)): 126 % of control | survivor count (dose: 11.3 mg/kg/injection, schedule: Q01DX011 (ip), vehicle: carboxymethylcellulose (CMC)): 6 of 10 | survivor count (dose: 12.5 mg/kg/injection, schedule: Q01DX011 (ip), vehicle: carboxymethylcellulose (CMC)): 1 of 10

C[N+](C)(C)C(C(=O)c1ccccc1)c1ccccc1 (configuration not stated)
T/C (dose: 5.0 mg/kg/injection, schedule: Q01DX011 (ip), vehicle: carboxymethylcellulose (CMC)): 127 % of control [9 of 10 alive] | survivor count (dose: 20.0 mg/kg/injection, schedule: Q01DX011 (ip), vehicle: carboxymethylcellulose (CMC)): 0 of 10

CSc1ncnc2c1ncn2CCO
survivor count [3]: 3 of 10

CCCCN(C)N=Nc1ccc(CCC(=O)NN)cc1
survivor count [1]: 4 of 10

O=c1[nH]cnc2n[nH]nc12
survivor count (dose: 31.25 mg/kg/injection, schedule: Q#A X022 (ip), vehicle: methylcellulose (MC)): 2 of 10 | survivor count (dose: 62.5 mg/kg/injection, schedule: Q01DX011 (ip), vehicle: methylcellulose (MC)): 1 of 10 | survivor count (dose: 125.0 mg/kg/injection, schedule: Q02DX006 (ip), vehicle: methylcellulose (MC)): 5 of 10 | survivor count (dose: 250.0 mg/kg/injection, schedule: Q01DX011 (oral), vehicle: methylcellulose (MC)): 5 of 10

CCC1CN1P(=S)(N1CC1CC)N1CC1CC (configuration not stated)
survivor count (dose: 226.0 mg/kg/injection, schedule: Q01DX011 (ip), vehicle: saline): 0 of 10

c1ccc2cc(SCCCN3CCOCC3)ccc2c1
survivor count [3]: 6 of 10 | survivor count (dose: 150.0 mg/kg/injection, schedule: Q01DX011 (ip), vehicle: methylcellulose (MC)): 3 of 10 | survivor count [4]: 5 of 10

[Cl][Pt+2]([Cl])([Cl])[Cl].[Na+].[S-]c1ncnc2nc[nH]c12.[S-]c1ncnc2nc[nH]c12
survivor count (dose: 56.0 mg/kg/injection, schedule: Q01DX011 (ip), vehicle: carboxymethylcellulose (CMC)): 3 of 10 | survivor count (dose: 150.0 mg/kg/injection, schedule: Q01DX011 (ip), vehicle: carboxymethylcellulose (CMC)): 0 of 10

Cc1ccc(N(O)C(=O)Nc2ccccc2)cc1
T/C (dose: 50.0 mg/kg/injection, schedule: Q01DX011 (ip), vehicle: methylcellulose (MC)): 141 % of control

CN(C)CCO
survivor count (dose: 200.0 mg/kg/injection, schedule: Q01DX011 (ip), vehicle: other): 4 of 10

CC(CNC(=O)CCOS(C)(=O)=O)NC(=O)CCOS(C)(=O)=O (configuration not stated)
T/C (dose: 14.0 mg/kg/injection, schedule: Q01DX011 (ip), vehicle: carboxymethylcellulose (CMC)): 130 % of control

CC(=O)OCC(=O)[C@@]1(O)CC[C@H]2[C@@H]3C[C@H](C)C4=CC(=O)C=C[C@]4(C)[C@H]3[C@@H](O)C[C@@]21C
survivor count (dose: 80.0 mg/kg/injection, schedule: Q01DX011 (sc), vehicle: steroid suspending solution): 6 of 10 | survivor count (dose: 160.0 mg/kg/injection, schedule: Q01DX011 (sc), vehicle: steroid suspending solution): 4 of 10 | survivor count (dose: 320.0 mg/kg/injection, schedule: Q01DX011 (sc), vehicle: steroid suspending solution): 4 of 12

c1ccc(CNc2ncnc3[nH]ncc23)cc1
survivor count (dose: 32.0 mg/kg/injection, schedule: Q01DX011 (ip), vehicle: carboxymethylcellulose (CMC)): 3 of 10 | survivor count (dose: 62.5 mg/kg/injection, schedule: Q01DX011 (ip), vehicle: carboxymethylcellulose (CMC)): 0 of 10 | survivor count [2]: 0 of 10 | survivor count (dose: 250.0 mg/kg/injection, schedule: Q01DX011 (ip), vehicle: carboxymethylcellulose (CMC)): 0 of 10

O=[As]O
T/C (dose: 1.57 mg/kg/injection, schedule: Q01DX011 (ip), vehicle: carboxymethylcellulose (CMC)): 142 % of control | survivor count (dose: 10.0 mg/kg/injection, schedule: Q01DX011 (ip), vehicle: methylcellulose (MC)): 2 of 10 | survivor count (dose: 13.0 mg/kg/injection, schedule: Q01DX011 (ip), vehicle: carboxymethylcellulose (CMC)): 5 of 10

NC(N)=Nc1nc2ccccc2s1
T/C (dose: 12.5 mg/kg/injection, schedule: Q01DX011 (ip), vehicle: other): 139 % of control | T/C (dose: 12.5 mg/kg/injection, schedule: Q01DX011 (ip), vehicle: water): 129 % of control | survivor count (dose: 25.0 mg/kg/injection, schedule: Q01DX011 (ip), vehicle: carboxymethylcellulose (CMC)): 6 of 10 | survivor count (dose: 50.0 mg/kg/injection, schedule: Q01DX011 (ip), vehicle: carboxymethylcellulose (CMC)): 0 of 10 | survivor count (dose: 50.0 mg/kg/injection, schedule: Q01DX011 (ip), vehicle: other): 2 of 10

NC(=O)CF
survivor count (dose: 5.0 mg/kg/injection, schedule: Q01DX011 (ip), vehicle: other): 5 of 10

Cn1c2c(sc1=O)CCC2
T/C [5]: 139 % of control | survivor count [5]: 1 of 10 | survivor count [6]: 3 of 10 | survivor count (dose: 175.0 mg/kg/injection, schedule: Q01DX011 (ip), vehicle: methylcellulose (MC)): 1 of 10 | survivor count (dose: 350.0 mg/kg/injection, schedule: Q01DX011 (ip), vehicle: methylcellulose (MC)): 4 of 10 and 6 of 10

C(=N\OCCc1ccccc1)/c1cccnc1
T/C [6]: 148 % of control | survivor count [4]: 2 of 10 and 6 of 10

Cn1c(=O)c2c(nc(N/N=C/c3ccccc3Br)n2C)n(C)c1=O
survivor count (dose: 60.0 mg/kg/injection, schedule: Q01DX011 (ip), vehicle: carboxymethylcellulose (CMC)): 5 of 10
